This note sets out measurements from US20250332154A1, “USE OF NAPHTHOQUINE PHOSPHATE IN PREPARATION OF A MEDICAMENT FOR TREATING AUTOIMMUNE DISEASES” (SHANGHAI PHARMACEUTICALS INDUSTRY CO., LTD, priority 2022, published 2025).

Values joined by “and” are separate entries in the source; they are usually repeats but may differ in a detail not shown here. Equal values may be shown once. Where a name gives a salt, the structure may show the parent alone. Some results are limits rather than exact numbers.

Common to all, as to conditions: SI = CC50/IC50
Series [1] deals with IgM. Briefly: IgM secretion by TLRs-L-stimulated purified mouse B cells (ELISA). The series is classed as cell-based. As to the method:
(§1) BALB/c mice were sacrificed by cervical dislocation, and spleens were aseptically excised to prepare spleen lymphocytes. The cells were adjusted to 1×10^8 cells/ml, blocked with 2.4G2 (final concentration: 10 μg/ml) for 20 min, cultured with PE-CD19 (final concentration: 5 μg/ml) for 20 min, washed with MACS buffer, centrifuged at 4° C., 300G for 10 min, 100 μl anti-PE beads were added per 1×10^8 cells, incubated with 900 μl MACS buffer for 15 min, washed with MACS buffer, centrifuged at 4° C., 300G for 10 min. The supernatant was discarded. 500 μl MACS buffer was added per 1×10^8 cells to resuspend the cells. MACS column was used for separation. Magnetically labeled cells were retained on the column. The MACS column was removed from the magnetic field and then eluted.
(§2) A suspension of purified mouse B cells was inoculated into a 96-well plate at 4×10^5/well. Hydroxychloroquine sulfate was diluted with a 2-fold gradient into 3 concentrations, starting from 8 μM: 8, 4 and 2 μM. Naphthoquine phosphate was diluted with a 2-fold gradient into 3 concentrations starting from 0.5 μM.: 0.5, 0.25 and 0.125 μM. The stimulant TLR4-L (final concentration: 10 μg/ml), TLR7-L (final concentration: 5 μg/ml) or TLR9-L (final concentration: 1 μM) and gradient diluted compounds were added. A corresponding stimulation control and a cell control (without stimulation) were set up. The cells were cultured in a 37° C., 5% CO2 incubator for 120 hours. After the end of the culture, the cell culture supernatants were collected, and the levels of IgG and IgM were measured by ELISA.
(In general: ELISA stands for enzyme-linked immunosorbent assay.)

For a further series, the system named is IL-10. Nature of the series: IL-10 secretion by TLRs-L-stimulated mouse whole spleen lymphocytes (ELISA). In kind it is cell-based. As to the method: (§3) BALB/c mice were sacrificed by cervical dislocation, and spleens were aseptically excised to prepare whole spleen lymphocytes. The cells were adjusted to 5×10^6 cells/ml. Hydroxychloroquine sulfate was diluted with a 3-fold gradient into 3 concentrations starting from 30 μM: 30, 10 and 3 μM; naphthoquine phosphate was diluted with a 3-fold gradient into 3 concentrations starting from 10 μM: 10, 3 and 1 μM.
(§4) Mouse spleen lymphocytes were inoculated into a 96-well plate at 100 μl/well, and the stimulant TLR4-L (final concentration: 10 μg/ml), TLR7-L (final concentration: 5 μg/ml) or TLR9-L (final concentration: 1 μM) and the compounds diluted with the above concentration gradients were added. A corresponding stimulation control and a cell control (without stimulation) were set up. The cells were cultured in a 37° C., 5% CO2 incubator for 48 hours. After the end of the culture, the cell culture supernatants were collected, and the levels of IL-1β, IL-6, and IL-10 were measured by ELISA.

Another series deals with purified mouse B cells. Briefly: B cell proliferation assay, TLRs-L-stimulated purified mouse B cells (3H-TdR). The series is classed as cell-based. How it is done:
as §1
Hydroxychloroquine sulfate was diluted 2-fold into 3 concentrations starting from 8 μM: 8, 4 and 2 μM. Naphthoquine phosphate was diluted 2-fold into 3 concentrations starting from 0.5: 0.5, 0.25 and 0.125 μM. A suspension of purified mouse B cells was inoculated into a 96-well plate at 4×10^5/well, and the stimulant TLR4-L (final concentration: 10 μg/ml), TLR7-L (final concentration: 5 μg/ml) or TLR9-L (final concentration: 1 μM) and the gradient diluted compounds were added. A corresponding stimulation control and a cell control (without stimulation) were set up. The cells were cultured in 37° C., 5% CO2 incubator for 48 hours. Eight hours before the end of the culture, ^3H-TdR was added, and the culture was continued until the end of the experiment. The cells were collected onto glass fiber membranes using a cell collector. 5 ml scintillation fluid was added, and the values of radioactive counts per minute were read on a Beta counter (2450 Microplate Counter, PerkinElmer).

In series [2] the test system is mouse whole spleen lymphocytes (ConA-induced T cell activation and proliferation). Nature of the series: ConA-induced lymphocyte proliferation assay (3H-thymidine). The series is classed as cell-based. How it is done:
(§5) BALB/c mice were sacrificed by cervical dislocation, and spleens were aseptically excised to prepare whole spleen lymphocytes. The cells were adjusted to the required concentration.
(§6) A suspension of mouse spleen lymphocytes was inoculated into a 96-well plate at 5×10^5/well, and ConA (final concentration: 1 μg/ml) or LPS (final concentration: 10 μg/ml) and the above 10 concentration gradients of the compound were added. Corresponding cell control wells without ConA and LPS, as well as medicament-free stimulated control wells, were set up. The cells were cultured in a 37° C., 5% CO2 incubator for 48 hours. Eight hours before the end of the culture, ^3H-thymidine was added, and the culture continued until the end of the experiment (i.e., the aforementioned 48 hours). The cells were collected onto glass fiber membranes using a cell collector.
(§7) ConA and LPS, as mitogens, stimulated proliferation and differentiation of T and B lymphocytes, respectively. This process is similar to the activation process of lymphocytes in vivo. Therefore, mitogen-induced lymphocyte proliferation is commonly used as an indicator to evaluate functionality of lymphocytes.

Series [3] concerns IL-1β. Briefly: IL-1β secretion by TLRs-L-stimulated mouse whole spleen lymphocytes (ELISA). The series is classed as cell-based. How it is done:
as §3, §4

Series [4] deals with IL-1β. Briefly: IL-1β production by LPS-induced RAW264.7 cells (ELISA). In kind it is cell-based, mouse. How it is done: RAW264.7 cells were inoculated into a 96-well plate at 1×10^5/well and allowed to adhere to the wall for 6 hours in a 37° C., 5% CO2 incubator. […] After the cells adhered to the wall, the stimulant LPS (final concentration: 10 μg/ml) and the gradient-diluted compounds were added. A corresponding stimulation control and a cell control (without stimulation) were set up. After the end of the culture, the cell culture supernatants were collected, and the levels of TNF-α, IL-1β and IL-6 were measured by ELISA.

The subject of series [5] is IgG. Briefly: IgG secretion by TLRs-L-stimulated mouse whole spleen lymphocytes (ELISA). The series is classed as cell-based. How it is done: as §3
(§8) Mouse spleen lymphocytes were inoculated into a 96-well plate at 100 μl/well, and the stimulant TLR4-L (final concentration: 10 μg/ml), TLR7-L (final concentration: 5 μg/ml) or TLR9-L (final concentration: 1 μM) and the compounds diluted with the above concentration gradients were added. A corresponding stimulation control and a cell control (without stimulation) were set up. The cells were cultured in a 37° C., 5% CO2 incubator for 120 hours. After the end of the culture, the cell culture supernatants were collected, and the levels of IgG and IgM were measured by ELISA.

Series [6] deals with IL-6. Briefly: IL-6 secretion by TLRs-L-stimulated mouse whole spleen lymphocytes (ELISA). In kind it is cell-based. How it is done: as §3, §4
The subject of series [7] is mouse whole spleen lymphocytes (LPS-induced B cell activation and proliferation). Briefly: LPS-induced lymphocyte proliferation assay (3H-thymidine). In kind it is cell-based. As to the method:
as §5, §6, §7

Series [8] relates to IL-6. Briefly: IL-6 secretion by TLRs-L-stimulated purified mouse B cells (ELISA). The series is classed as cell-based. As to the method: as §1
as §2, with “concentrations” for “concentrations,”, “concentrations” for “concentrations starting from”, “48” for “120”, “TNF-α, IL-1β,” for “IgG”, “IL-6” for “IgM”

In series [9] the test system is IgM. Briefly: IgM secretion by TLRs-L-stimulated mouse whole spleen lymphocytes (ELISA). In kind it is cell-based. As to the method: as §3, §8
The test system of series [10] is IgG. Nature of the series: IgG secretion by TLRs-L-stimulated purified mouse B cells (ELISA). The series is classed as cell-based. How it is done:
as §1, §2

Series [11] relates to mouse whole spleen lymphocytes. Briefly: TLRs-L-stimulated proliferation of mouse whole spleen lymphocytes (3H-TdR). The series is classed as cell-based. How it is done:
as §3
A suspension of mouse spleen lymphocytes was inoculated into a 96-well plate at […], and the stimulant TLR4-L (final concentration: 10 μg/ml), TLR7-L (final concentration: 5 μg/ml) or TLR9-L (final concentration: 1 μM) and compounds diluted with the above concentration gradients were added. A corresponding stimulation control and a cell control (without stimulation) were set up. The cells were cultured in a 37° C., 5% CO2 incubator for 48 hours. Eight hours before the end of culture, ^3H-TdR was added, and the culture continued until the end of the experiment. The cells were collected onto glass fiber membranes using a cell collector. 5 ml scintillation fluid was added, and the values of radioactive counts per minute were read on a Beta counter (2450 Microplate Counter, PerkinElmer).

On to `CC(C)(C)NCc1cc(Nc2ccnc3cc(Cl)ccc23)c2c(c1O)CCCC2.O=P(O)(O)O.O=P(O)(O)O` [Naphthoquine Phosphate, Naphthoquine phosphate], for which the “IgM SI” value in the series with IgM [1] (TLR4-L) was 9.37; in the series on IgM [1] (TLR7-L), 2.71 and <3.97; in the series with IgM [1] (TLR9-L) it was 9.81 and 19.03; with IgM [9] (TLR4-L), 1.881; in the series on IgM [9] (TLR9-L) it was 0.84. For the same molecule, the “IL-10 SI” value with IL-10 (TLR4-L) is on record as 14.972; in the series with IL-10 (TLR7-L), 40.769; in the series on IL-10 (TLR9-L), 8.364. The “Proliferation SI” value was 10.46 in the series on purified mouse B cells (TLR4-L); 5.70 and 9.18 in the series with purified mouse B cells (TLR7-L); 5.99 and 8.68 in the series on purified mouse B cells (TLR9-L); 12.316 in series [11] (TLR4-L); 1.513 in series [11] (TLR7-L); 7.304 in series [11] (TLR9-L). The “ConA SI” value in series [2] is on record as 3.5. In addition, the “IB-1β SI” value in the series with IL-1β [3] (TLR4-L) was 0.475; in the series on IL-1β [4], 5.48. The “IgG SI” value was 4.888 in the series with IgG [5] (TLR9-L); 4.82 with IgG [10] (TLR4-L); 2.60 and <3.97 in the series on IgG [10] (TLR7-L); 4.34 and 4.91 in the series with IgG [10] (TLR9-L). The “IL-6 SI” value is 2.524 with IL-6 [6] (TLR4-L); 233.824 in the series on IL-6 [6] (TLR7-L); 5.483 with IL-6 [6] (TLR9-L); 3.93 in the series on IL-6 [8] (TLR4-L); 5.99 and 5.30 with IL-6 [8] (TLR7-L); 4.89 and 8.59 in the series with IL-6 [8] (TLR9-L). The “LPS SI” value in [7] came to 17.71.

As to `CCN(CCO)CCCC(C)Nc1ccnc2cc(Cl)ccc12` (stereo not drawn) [Hydroxychloroquine Sulfate, hydroxychloroquine sulfate], the “IgM SI” value was less than 2.47 in the series with IgM [1] (TLR4-L), 1.066 with IgM [9] (TLR4-L), 1.402 in the series on IgM [9] (TLR7-L) and 10.754 in the series on IgM [9] (TLR9-L). In addition, the “IL-10 SI” value worked out at 8.454 with IL-10 (TLR4-L), 24.323 in the series with IL-10 (TLR7-L) and 8.177 in the series on IL-10 (TLR9-L). Moreover, the “Proliferation SI” value with purified mouse B cells (TLR4-L) came out at 1.98; in series [11] (TLR4-L), 4.079; in series [11] (TLR7-L), 1.422; in series [11] (TLR9-L), 3.066. Moreover, in series [2], the “ConA SI” value is 1.5. Besides, the “IB-1β SI” value in the series on IL-1β [3] (TLR4-L) is listed as 0.843; in the series on IL-1β [3] (TLR9-L) it was 0.648; with IL-1β [4], 6.96. Besides, the “IgG SI” value is 1.482 with IgG [5] (TLR4-L), 1.002 in the series with IgG [5] (TLR7-L), 4.790 in the series with IgG [5] (TLR9-L) and less than 2.47 with IgG [10] (TLR4-L). Further, the “IL-6 SI” value in the series on IL-6 [6] (TLR4-L) is 1.759; with IL-6 [6] (TLR7-L), 14.147; in the series on IL-6 [6] (TLR9-L), 6.868; in the series on IL-6 [8] (TLR4-L), less than 2.47. In addition, the “LPS SI” value in series [7] was 1.69.

In the case of `CCN(CC)CCCC(C)Nc1ccnc2cc(Cl)ccc12` (stereo not drawn) [Chloroquine Phosphate], the “ConA SI” value in [2] was determined as 1.9. For the same molecule, the “LPS SI” value in series [7] is given as 1.79.
